Measurements reported in PubChem BioAssay AID686943 (Drosophila RNAi Screening Center, 2013).
Aim: 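Fly genes whose loss alters ERK activation after insulin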 (primary screen). System: Drosophila S2R+ haemocyte-like cells expressing YFP-tagged ERK (Rolled). Knock-down reagent: long dsRNA against Drosophila genes. Challenge: insulin stimulation versus unstimulated cells; dose and duration not given. Detection: 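Antibody staining for doubly phosphorylated ERK divided by ERK-YFP signal, as plate z-scores, in insulin-treated and untreated cells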. Reading the numbers: replicate 1, z-score of dpERK with insulin and replicate 2, z-score of dpERK with insulin: higher = more active ERK per ERK-YFP after insulin; replicate 1, z-score of dpERK under basal conditions: higher = more basal active ERK per ERK-YFP; replicate 1, z-score of ERK-YFP with insulin: higher = more YFP-tagged ERK signal.
The screen tested about 23,000 reagents; this is an unselected part of those with a known target gene and a result. 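Extra replicates exist only for a retested subset of genes; insulin dose and duration not given; both raised and lowered dpERK matter.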 The numbers tell different reagents against one gene apart. Names joined by + are all predicted targets of the reagent. The record does not give: the amount of reagent, the time to read-out.

gene | reagent no. | replicate 1, z-score of dpERK with insulin | replicate 2, z-score of dpERK with insulin | replicate 1, z-score of dpERK under basal conditions | replicate 1, z-score of ERK-YFP with insulin
CG1136 | 1 | 0.41 | -0.26 | 0.95 | 0.2
CG42383 | 1 | 1.27 | 1.34 | -0.38 | 0.38
Cln7 | 1 | 0.34 | -0.19 | -0.52 | -0.52
CSN7 (COP9 signalosome subunit 7) | 1 | -0.06 | -0.29 | -0.45 | -1.1
CSN7 (COP9 signalosome subunit 7) | 2 | -0.45 | -2.57 | -0.15 | -0.55
Syn1 (Syntrophin-like 1) | 1 | 0.27 | -0.89 | -0.57 | -0.33
Syn1 (Syntrophin-like 1) | 2 | 0.04 | 0.48 | -0.26 | 0.31
Pde9 (Phosphodiesterase 9) | 1 | 0.27 | -0.01 | 0.01 | -0.27
Pde9 (Phosphodiesterase 9) | 2 | 1.22 | 0.75 | 0.8 | 0.11
Pde9 (Phosphodiesterase 9) | 3 | -0.01 | 0.12 | 0.02 | 0.57
Pde9 (Phosphodiesterase 9) | 4 | 0.18 | 0.47 | 1.26 | 0.25
Patj | 1 | 0.98 | 0.38 | 1.03 | 0.37
CG14834 | 1 | 0.55 | 0 | 0.23 | -0.25
ms(3)76Ba (male sterile (3) 76Ba) | 1 | 0.58 | 0.29 | -0.48 | -0.27
Hex-t2 (Hexokinase testis 2) | 1 | 0.12 | -0.46 | 0.57 | -0.21
CG6785 | 1 | -0.82 | -0.64 | 0.68 | -0.82
CG11600 | 1 | -0.17 | -0.4 | -0.82 | 0.11
nudE | 1 | 1.02 | 0.25 | 1.26 | 0.2
nudE | 2 | 0.6 | 0.42 | 1.69 | -0.16
Idi (Isopentenyl-diphosphate delta isomerase) | 1 | -0.86 | 0.48 | 0.56 | 0.03
Rab4 | 1 | -1.09 | -0.42 | -0.2 | 1.24
CG10237 | 1 | -0.23 | -0.18 | -1.48 | 0.46
sob | 1 | 1.29 | 0.86 | -0.15 | -0.12
natalisin | 1 | -0.46 | 1.6 | -1.11 | 0.01
natalisin | 2 | 1.1 | 0.33 | 0.45 | -1.11
CG5421 | 1 | 0 | 0.67 | 1.15 | 0.29
trv (trivet) | 1 | -0.13 | -0.2 | -0.59 | 0
trv (trivet) | 2 | 1.42 | -0.19 | -1.04 | 0.09
trv (trivet) | 3 | 1.63 | -0.12 | 0.46 | -0.05
trv (trivet) | 4 | 1 | 0.01 | -0.35 | 0.02
CG14200 | 1 | -3.78 | -1.59 | -3.6 | -2.08
CG2104 | 1 | 0.59 | 0.53 | -0.69 | -0.51
Kr-h1 (Kruppel homolog 1) | 1 | -1.05 | 0.44 | -0.49 | -0.48
Kr-h1 (Kruppel homolog 1) | 2 | 0.89 | 0.62 | 0.45 | 0.47
Fam92 | 1 | -0.02 | -0.45 | -0.54 | -0.33
aru (arouser) | 1 | 0.06 | 0.17 | 0.29 | -0.18
aru (arouser) | 2 | 0.21 | 0.53 | -0.32 | 0.81
CG10802 | 1 | 0.17 | -0.03 | -0.2 | 0.29
CG31368 | 1 | 0.21 | 1.52 | -0.14 | 0.46
CG31368 | 2 | 0.61 | 0.69 | 0.32 | 0.47
Zn72D (Zinc-finger protein at 72D) | 1 | 0.8 | 0.22 | -0.16 | -0.88
dila (dilatory) | 1 | 0.76 | 1.06 | 0.35 | 0.12
CG8646 | 1 | -0.23 | 0.07 | 0.19 | 1.34
CG12963 | 1 | 1.1 | 0.32 | 1.28 | -0.09
CG12963 | 2 | 0.69 | 0.19 | 0.08 | -0.17
CG11791 | 1 | 0.15 | -0.18 | -1.48 | 1.57
lncRNA:bxd (bithoraxoid) | 1 | 0.5 | 1.56 | -0.76 | 0.34
CG33346 | 1 | 0.69 | 0.12 | -0.76 | -0.81
Rrp40 (Ribosomal RNA processing 40) | 1 | 0.35 | -0.81 | 0.67 | -0.58
CG4332 | 1 | -0.23 | 0.23 | -0.18 | 0.68
eIF3a (eukaryotic translation initiation factor 3 subunit a) | 1 | -2.04 | -0.5 | -3.73 | -1.55
Atg9 (Autophagy-related 9) | 1 | -0.74 | -0.51 | -0.07 | 1.42
PH4alphaSG1 (prolyl-4-hydroxylase-alpha SG1) | 1 | -0.27 | 0.26 | -0.08 | 0.22
BomS5 (Bomanin Short 5) | 1 | 0.32 | 0.88 | 0 | 0.57
CG43193 (retired record) | 1 | 1.37 | 1.54 | -0.06 | -0.3
CG9897 + asRNA:CR42742 | 1 | 0.39 | 0.73 | 0.72 | 0.32
CG17127 | 1 | 0.58 | 0.46 | 0.1 | -0.04
